The list does not hold the whole screen: it gathers tests that were run many times, whatever their T/C, doses with no T/C, and many T/C values between a quarter and a half above the control. Other doses and runs of a compound stand elsewhere. T/C is the treated group as % of the vehicle group. Some doses have a count of surviving animals in place of a T/C: the source files T/C as zero there, which appears to mark a toxic dose or a test without result, not a measured value. Some survivor counts are full or nearly so, which does not show that the dose was tolerated: survival well below the control is almost never listed, so the zero probably covers shortened survival too. Counts of survivors are from the toxicity check (mostly the fifth day) where no day follows; animals may have died later. Schedules are NCI's codes, read here as Q, the interval in days (D) or hours (H), X, the number of doses. Some entries were tested several times; their values stand side by side, smallest first. Where survival is the endpoint, the PubChem record calls one and a half times the control and up active, and a quarter to a half above the control has no call in these data; cut-offs in other NCI protocols can differ. Marks such as (2×) stand for listed records that agree. Starred links: 1 amine or outer side, 2 acyl side, 3 side chain; linkers in the order of their positions; H or OH if unused. Positions of bridges follow the written chain, without caps; N, C: chain ends. Non-standard residues stand in square brackets, D forms with d. Residues, ends and D or L forms follow the SMILES beside them. Chains are numbered I, II in the order given. Actinocin(1to9) = Cc1c2oc3c(C)ccc(C(=O)[*:2])c3nc-2c(C(=O)[*:1])c(N)c1=O; NMeV = CN[CH](C(=O)O)C(C)C; Sar = CNCC(=O)O
Test system: BDF1 mice, P388 leukemia ip, median survival T/C
Assay: NCI In Vivo Anticancer Drug Screen. Data for tumor model P388 Leukemia (intraperitoneal) in B6D2F1 (BDF1) mice
Conditions: T/C endpoint: median survival time, higher T/C = longer survival
In short: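 Mice carrying the transplantable tumour receive compound or vehicle. Survival is followed in each arm, and the treated measure is divided by the vehicle measure.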

[1] = dose: 32.0 mg/kg/injection, schedule: Q01DX010 (ip), vehicle: saline
[2] = dose: 200.0 mg/kg/injection, schedule: Q01DX009 (ip), vehicle: saline

Structure (SMILES): Cc1c(N)nc([C@H](CC(N)=O)NC[C@H](N)C(N)=O)nc1C(=O)N[C@H](C(=O)N[C@H](C)[C@@H](O)[C@H](C)C(=O)N[C@H](C(=O)NCCc1nc(-c2nc(C(=O)NCCC[S+](C)C)cs2)cs1)[C@@H](C)O)C(OC1OC(CO)C(O)C(O)C1OC1OC(CO)C(O)C(OC(N)=O)C1O)c1cnc[nH]1 (some centres not stated)
- survivor count (dose: 0.03 mg/kg/injection, schedule: Q03HX040 (ip), vehicle: saline): 10 of 10
- survivor count (dose: 0.06 mg/kg/injection, schedule: Q03HX040 (ip), vehicle: saline): 10 of 10
- survivor count (dose: 0.25 mg/kg/injection, schedule: Q03HX040 (ip), vehicle: saline): 9 of 10
- survivor count (dose: 1.0 mg/kg/injection, schedule: Q03HX040 (ip), vehicle: saline): 9 of 10
- T/C (dose: 2.0 mg/kg/injection, schedule: Q01DX005 (ip), vehicle: water): 125 % of control
- T/C (dose: 2.0 mg/kg/injection, schedule: Q01DX010 (ip), vehicle: saline): 90, 110, 120, 130 % of control (2×)
- T/C (dose: 2.0 mg/kg/injection, schedule: Q03HX024 (ip), vehicle: saline): 127 % of control (2×)
- survivor count (dose: 2.0 mg/kg/injection, schedule: Q03HX040 (ip), vehicle: saline): 5 of 10
- T/C (dose: 3.5 mg/kg/injection, schedule: Q01DX009 (ip), vehicle: saline): 131 % of control
- T/C (dose: 4.0 mg/kg/injection, schedule: Q01DX010 (ip), vehicle: saline): 110, 120, 130, 140, 170 % of control
- T/C (dose: 4.0 mg/kg/injection, schedule: Q03HX016 (ip), vehicle: saline): 136 % of control
- T/C (dose: 4.0 mg/kg/injection, schedule: Q03HX024 (ip), vehicle: saline): 127 % of control
- survivor count (dose: 4.0 mg/kg/injection, schedule: Q03HX040 (ip), vehicle: saline): 6 of 10
- T/C (dose: 5.3 mg/kg/injection, schedule: Q01DX009 (ip), vehicle: saline): 127 and 145 % of control
- T/C (dose: 6.5 mg/kg/injection, schedule: Q01DX009 (ip), vehicle: saline): 127 % of control
- T/C (dose: 7.81 mg/kg/injection, schedule: Q01DX010 (ip), vehicle: saline): 140 % of control
- T/C (dose: 8.0 mg/kg/injection, schedule: Q01DX009 (ip), vehicle: saline, evaluated on day 5): 124 % of control
- T/C (dose: 8.0 mg/kg/injection, schedule: Q01DX009 (ip), vehicle: saline, evaluated on day 30): 126 % of control
- T/C (dose: 8.0 mg/kg/injection, schedule: Q01DX009 (ip), vehicle: saline, evaluated on day 45): 136 and 145 % of control
- T/C (dose: 8.0 mg/kg/injection, schedule: Q01DX009 (ip), vehicle: saline, evaluated on day 60): 108, 125, 127, 130 % of control
- T/C (dose: 8.0 mg/kg/injection, schedule: Q01DX010 (ip), vehicle: saline): 115, 130, 140, 160, 215 % of control
- T/C (dose: 8.0 mg/kg/injection, schedule: Q03HX008 (ip), vehicle: saline): 127 % of control
- T/C (dose: 12.0 mg/kg/injection, schedule: Q01DX009 (ip), vehicle: saline): 131 and 140 % of control
- T/C (dose: 15.62 mg/kg/injection, schedule: Q01DX010 (ip), vehicle: saline): 145 % of control
- T/C (dose: 16.0 mg/kg/injection, schedule: Q01DX009 (ip), vehicle: saline, evaluated on day 5): 124 % of control
- T/C (dose: 16.0 mg/kg/injection, schedule: Q01DX009 (ip), vehicle: saline, evaluated on day 60): 120, 127, 130 % of control
- T/C (dose: 16.0 mg/kg/injection, schedule: Q01DX010 (ip), vehicle: saline): 110 (2×), 140, 150, 170 % of control
- survivor count (dose: 16.0 mg/kg/injection, schedule: Q03HX024 (ip), vehicle: saline): 9 of 10
- T/C (dose: 16.0 mg/kg/injection, schedule: Q04DX003 (ip), vehicle: other): 126 % of control
- T/C (dose: 18.0 mg/kg/injection, schedule: Q01DX009 (ip), vehicle: saline): 127 % of control
- T/C (dose: 31.25 mg/kg/injection, schedule: Q01DX010 (ip), vehicle: saline): 127 % of control
- T/C (dose: 32.0 mg/kg/injection, schedule: Q01DX001 (ip), vehicle: saline): 136 % of control
- survivor count (dose: 32.0 mg/kg/injection, schedule: Q01DX005 (ip), vehicle: water): 3 of 6
- T/C (dose: 32.0 mg/kg/injection, schedule: Q01DX009 (ip), vehicle: saline, evaluated on day 5): 104 % of control
- T/C (dose: 32.0 mg/kg/injection, schedule: Q01DX009 (ip), vehicle: saline, evaluated on day 60): 104, 110, 127 % of control
- survivor count (dose: 32.0 mg/kg/injection, schedule: Q01DX009 (ip), vehicle: water): 5 of 6
- T/C [1]: 95, 110 (2×), 125 % of control
- survivor count [1]: 6 of 6
- T/C (dose: 32.0 mg/kg/injection, schedule: Q04DX003 (ip), vehicle: saline): 127 % of control
- T/C (dose: 32.0 mg/kg/injection, schedule: Q08DX002 (ip), vehicle: saline): 127 % of control
- survivor count (dose: 62.5 mg/kg/injection, schedule: Q01DX010 (ip), vehicle: saline): 6 of 6
- survivor count (dose: 64.0 mg/kg/injection, schedule: Q01DX005 (ip), vehicle: water): 0 of 6
- survivor count (dose: 64.0 mg/kg/injection, schedule: Q01DX009 (ip), vehicle: saline): 10 of 10
- survivor count (dose: 64.0 mg/kg/injection, schedule: Q01DX010 (ip), vehicle: saline): 2 of 6, 4 of 6, 5 of 6
- survivor count (dose: 64.0 mg/kg/injection, schedule: Q04DX003 (ip), vehicle: other): 6 of 6
- T/C (dose: 64.0 mg/kg/injection, schedule: Q08DX002 (ip), vehicle: saline): 136 % of control
- survivor count (dose: 125.0 mg/kg/injection, schedule: Q01DX010 (ip), vehicle: saline): 5 of 6
- survivor count (dose: 128.0 mg/kg/injection, schedule: Q01DX001 (ip), vehicle: saline): 7 of 10
- survivor count (dose: 128.0 mg/kg/injection, schedule: Q04DX003 (ip), vehicle: other): 6 of 6
- survivor count (dose: 128.0 mg/kg/injection, schedule: Q04DX003 (ip), vehicle: saline): 8 of 10
- survivor count (dose: 250.0 mg/kg/injection, schedule: Q01DX010 (ip), vehicle: saline): 0 of 6

Structure (SMILES): CCC(C)C1NC(=O)C(NC(=O)c2c3nc4c(C(=O)NC5C(=O)NC(C(C)CC)C(=O)N6CCCC6C(=O)N(C)CC(=O)N(C)C(C(C)C)C(=O)OC5C)ccc(C)c4oc-3c(C)c(=O)c2N)C(C)OC(=O)C(C(C)C)N(C)C(=O)CN(C)C(=O)C2CCCN2C1=O (configuration not stated) (I: TIP[Sar][NMeV] / II: TIP[Sar][NMeV]; ester I:1-I:C, II:1-II:C; linker I:N-II:N via Actinocin(1to9); configuration not given here)
- survivor count (dose: 0.2 mg/kg/injection, schedule: Q01DX010 (ip), vehicle: saline): 6 of 6
- survivor count (dose: 0.4 mg/kg/injection, schedule: Q01DX010 (ip), vehicle: saline): 6 of 6
- T/C (dose: 12.5 micrograms/kg/injection, schedule: Q04DX003 (ip), vehicle: saline): 140 % of control
- T/C (dose: 50.0 micrograms/kg/injection, schedule: Q01DX001 (ip), vehicle: saline): 140 % of control
- T/C (dose: 100.0 micrograms/kg/injection, schedule: Q01DX001 (ip), vehicle: saline): 136 % of control
- survivor count (dose: 400.0 micrograms/kg/injection, schedule: Q01DX010 (ip), vehicle: saline): 6 of 6

Structure (SMILES): COc1cc2cc[n+](C)cc2cc1OC
- T/C (dose: 50.0 mg/kg/injection, schedule: Q04DX003 (ip), vehicle: saline): 127 % of control
- survivor count [2]: 3 of 6
- survivor count (dose: 200.0 mg/kg/injection, schedule: Q04DX003 (ip), vehicle: saline): 5 of 6

Structure (SMILES): CN=C1N[N+]2=CCCCC2S1 (configuration not stated)
- T/C (dose: 90.0 mg/kg/injection, schedule: Q01DX009 (ip), vehicle: saline): 149 % of control

Structure (SMILES): CCN(CC)CCNc1ccc(C)c2sc3ccccc3c(=O)c12
- T/C (dose: 25.0 mg/kg/injection, schedule: Q01DX010 (ip), vehicle: saline): 127 and 140 % of control
- T/C (dose: 50.0 mg/kg/injection, schedule: Q01DX009 (ip), vehicle: saline): 145 % of control
- T/C (dose: 100.0 mg/kg/injection, schedule: Q01DX010 (ip), vehicle: saline): 140 % of control
- survivor count [2]: 2 of 6
- survivor count (dose: 200.0 mg/kg/injection, schedule: Q01DX010 (ip), vehicle: saline): 6 of 6

Structure (SMILES): Cc1[nH]nc(-c2ccon2)c1N=O
- survivor count (dose: 200.0 mg/kg/injection, schedule: Q01DX009 (ip), vehicle: saline with Tween-80): 1 of 6
